The target of this experiment is T1, MED30 (human) (UniProt Q96HR3).
T1 sequence: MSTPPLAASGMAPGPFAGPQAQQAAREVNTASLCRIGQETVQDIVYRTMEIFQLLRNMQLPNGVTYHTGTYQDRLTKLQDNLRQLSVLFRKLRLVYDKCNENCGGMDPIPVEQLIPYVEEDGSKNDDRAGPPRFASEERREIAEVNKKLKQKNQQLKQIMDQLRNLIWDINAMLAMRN
The experiment can be described thus: co-IP; Mia PaCa-2 cells cross-linked with 1 mM EGS for 20 min at room temperature, quenched with glycine; lysis in 150 mM NaCl, 20 mM Tris-Cl pH 7.4, 1% Triton X-100; 1 ug antibody overnight at 4 C, Protein A/G magnetic beads; immunoblot. (In general: Immunoblotting shows a protein as a band on a membrane.)

Chains of the proteins cited; added tags and fusions are not shown.
UniProt P01106: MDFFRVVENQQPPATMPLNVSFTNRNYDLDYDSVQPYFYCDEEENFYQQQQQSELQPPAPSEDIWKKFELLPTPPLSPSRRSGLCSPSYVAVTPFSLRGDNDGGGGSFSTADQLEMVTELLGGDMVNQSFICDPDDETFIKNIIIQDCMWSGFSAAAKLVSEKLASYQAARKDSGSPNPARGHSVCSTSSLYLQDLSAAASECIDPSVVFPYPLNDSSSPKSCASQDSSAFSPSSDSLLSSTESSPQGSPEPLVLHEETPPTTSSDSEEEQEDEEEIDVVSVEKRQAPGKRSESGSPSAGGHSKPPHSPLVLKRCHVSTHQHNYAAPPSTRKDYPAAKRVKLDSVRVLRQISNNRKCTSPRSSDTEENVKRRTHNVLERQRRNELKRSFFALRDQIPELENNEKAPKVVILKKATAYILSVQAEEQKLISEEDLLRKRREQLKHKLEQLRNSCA

In paper PMC13384758 one finds binding data, which are given here for 1 substance.

Results are given in words; binding and its absence hold for the method and conditions named. In cells and extracts the contact can be indirect. Some binding calls cover weakened binding; strength is not graded here.

Regarding MYC (from UniProt P01106 1-454), the binding result is given as “binds”.
